The assay concerns HepG2 cells. The assay can be described thus: In-vitro cytotoxicity, ATP content. Particulars: Homo sapiens, HepG2, Table 5B. It counts as cell-based. An excerpt: To evaluate in-vitro cytotoxicity of a compound of the invention, two different assay methods are employed. The assays evaluate cell viability by measuring ATP levels and cytotoxicity by measuring LDH release. […] It has been called the “molecular unit of currency” when it comes to intracellular energy transfer.
An additional method to determine the viability of cells is to detect the integrity of the membrane that defines the cellular compartmentalization. Measuring the leakage of components out of the cytoplasm, in damaged cell membranes, indicates loss of membrane integrity, and LDH release is the method used to determine common toxicity in cells. HepG2 cells are treated with a compound of the invention, and serial dilutions are performed. LCA dilutions are added to the plated cells as assay controls together with no-cell and untreated cells. The assay is performed in triplicate for each test compound concentration.

The EC50 is the concentration that produces a half-maximal response.

For `CC/C(=C(\c1ccccc1)c1ccc(OCCN(C)C)cc1)c1ccccc1` [Tamoxifen, reference compound], a half-maximal response (EC50) required 20 ± 5 µM.

Values taken from US11034717B2, “Farnesoid X receptor modulators” (Intercept Pharmaceuticals, Inc., priority 2015, dated 2021).
